End groups of sequences in plain letters are not given here. One purity is given for all peptides; the source may state it once. Where only a bound is given, the exact number is not on record here.

The nature of the series: general procedure: Fmoc solid-phase peptide synthesis. Particulars: whole synthesis.

Take H-TILLEIKNINAD-NH2: the “final HPLC purity” value is greater than 95%.
In the case of TILAEIKNINAD it was greater than 95%; in that of YAIDTILAEIKNINAD, greater than 95%.
To YAIDTILLEIKNINAD belongs greater than 95%.

Values taken from patent US20110275569A1 (CONSIGLIO NAZIONALE DELLE RICERCHE, priority 2008, published 2011).
